Binding data for two molecules are collected here from paper PMC10539794, “Structural polymorphism and substrate promiscuity of a ribosome-associated molecular chaperone” (Magnetic resonance, 2021).

This test addresses RBD-truncated TF construct, residues 113-432 (PPI + SBD) (E. coli). The experiment in a line: NMR paramagnetic relaxation enhancement (PRE); MTSL-labeled peptide added to isotope-labeled PPI + SBD or full-length TF (the latter at a concentration where it is predominantly dimeric); 15N-1H TROSY and methyl SOFAST-HMQC, oxidized against reduced (1 mM ascorbic acid), I^ox/I^red; 20 mM sodium phosphate pH 7.4, 100 mM NaCl; both purified.

Results are given in words; binding and its absence hold for the method and conditions named. Binding calls can cover weak binding; strength is not graded here.

As for YICLRPVRYYQGT (MTSL spin label on the endogenous cysteine) [MTSL-labeled IcdH2 peptide (ICDH 125-137)], the binding entry is reported as “binds”. Regarding KFLREEMGVKKIRFPEHC (MTSL spin label on the endogenous cysteine) [MTSL-labeled IcdH3 peptide (ICDH 177-194)], the binding result was “binds”.
